The values below come from PubChem BioAssay AID435022 (Sanford-Burnham Center for Chemical Genomics, 2010).

This is a selection; strong and weak results do not stand in their true shares. The source made the active and inactive calls. Cut-off read from the data, not from the text of the source: active = inhibition above about 35%; inactive = the rest.

For orientation: inhibition means the drop in the measured response relative to a control, in per cent.

This test can be described thus: lowers stimulated NF-kB luciferase signal in 697 B cells – cell-based, luminescence, uHTS, B-cell NF-kB inhibitor project, primary screen (AID 435022). As to conditions: 697 B-cell NF-kB luciferase reporter, PMA/ionomycin, 16 h; at 4 µM; active compounds read high. For orientation: A reporter such as luciferase makes a cellular process visible.
As for `CN[C@H]1C[C@H]2O[C@@](C)([C@H]1OC)n1c3ccccc3c3c4c(c5c6ccccc6n2c5c31)C(=O)NC4`, the inhibition is active: 105%.
